{"source": "PubChem BioAssay AID1259308 – NCATS, 2017", "aim": "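Genes whose loss raises luciferase production in HEK293 cells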 (primary screen)", "cell system": "human HEK293 embryonic kidney cells stably expressing firefly luciferase (HEK-CMV-Luc2-Hygro)", "knock-down reagent": "single siRNA against human genes, 0.8 pmol siRNA per well", "duration": "72 h", "measurement": "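Luciferase light (ONE-Glo) measured on one replicate plate set and viability (CellTiter-Glo) on the other, scaled to a negative control siRNA, with robust z-scores and luciferase per cell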", "direction": "total luciferase, z-score and total luciferase, % of control: higher = more reporter protein produced", "active means": "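Active when the median/MAD z-score for overall luciferase is greater than 3; a gene was taken forward for validation with new siRNAs if at least two of its three siRNAs passed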", "calls": "active = raised luciferase; inactive = no rise", "note": "The deposit covers about 59,000 reagents; shown is a part drawn at random. Of all reagents, about 1,510 (2.6%) were called active. 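Calls use total luciferase alone and ignore viability, so some active siRNAs may act by altering cell number.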 Reagents against one gene are numbered here. Not all columns of the deposit are shown. Reagent sequences are not shown."}
{"target": "TRPV5", "reagent": 1, "total luciferase, z-score": 0.567, "total luciferase, % of control": 93.2, "activity call": "inactive"}
{"target": "TRPV5", "reagent": 2, "total luciferase, z-score": -0.408, "total luciferase, % of control": 73.8, "activity call": "inactive"}
{"target": "TRPV5", "reagent": 3, "total luciferase, z-score": -1.84, "total luciferase, % of control": 45.3, "activity call": "inactive"}
{"target": "MAN2A1 (mannosidase alpha class 2A member 1)", "reagent": 1, "total luciferase, z-score": 0.488, "total luciferase, % of control": 91.6, "activity call": "inactive"}
{"target": "MAN2A1 (mannosidase alpha class 2A member 1)", "reagent": 2, "total luciferase, z-score": -0.349, "total luciferase, % of control": 75, "activity call": "inactive"}
{"target": "MAN2A1 (mannosidase alpha class 2A member 1)", "reagent": 3, "total luciferase, z-score": 0.308, "total luciferase, % of control": 88, "activity call": "inactive"}
{"target": "ACTL8 (actin like 8)", "reagent": 1, "total luciferase, z-score": 0.333, "total luciferase, % of control": 88.5, "activity call": "inactive"}
{"target": "ACTL8 (actin like 8)", "reagent": 2, "total luciferase, z-score": 0.308, "total luciferase, % of control": 88, "activity call": "inactive"}
{"target": "ACTL8 (actin like 8)", "reagent": 3, "total luciferase, z-score": -0.215, "total luciferase, % of control": 77.6, "activity call": "inactive"}
{"target": "SH3BP5L (SH3 binding domain protein 5 like)", "reagent": 1, "total luciferase, z-score": 0.399, "total luciferase, % of control": 89.8, "activity call": "inactive"}
{"target": "SH3BP5L (SH3 binding domain protein 5 like)", "reagent": 2, "total luciferase, z-score": 0.391, "total luciferase, % of control": 89.7, "activity call": "inactive"}
{"target": "SH3BP5L (SH3 binding domain protein 5 like)", "reagent": 3, "total luciferase, z-score": -0.821, "total luciferase, % of control": 65.6, "activity call": "inactive"}
{"target": "GRAMD1B (GRAM domain containing 1B)", "reagent": 1, "total luciferase, z-score": -0.332, "total luciferase, % of control": 75.3, "activity call": "inactive"}
{"target": "GRAMD1B (GRAM domain containing 1B)", "reagent": 2, "total luciferase, z-score": -2.03, "total luciferase, % of control": 41.5, "activity call": "inactive"}
{"target": "GRAMD1B (GRAM domain containing 1B)", "reagent": 3, "total luciferase, z-score": -0.64, "total luciferase, % of control": 69.2, "activity call": "inactive"}
{"target": "NDC1 (NDC1 transmembrane nucleoporin)", "reagent": 1, "total luciferase, z-score": -0.444, "total luciferase, % of control": 73, "activity call": "inactive"}
{"target": "NDC1 (NDC1 transmembrane nucleoporin)", "reagent": 2, "total luciferase, z-score": 1.96, "total luciferase, % of control": 121, "activity call": "inactive"}
{"target": "NDC1 (NDC1 transmembrane nucleoporin)", "reagent": 3, "total luciferase, z-score": -0.314, "total luciferase, % of control": 75.6, "activity call": "inactive"}
{"target": "SUCLG1 (succinate-CoA ligase GDP/ADP-forming subunit alpha)", "reagent": 1, "total luciferase, z-score": 0.0509, "total luciferase, % of control": 82.9, "activity call": "inactive"}
{"target": "SUCLG1 (succinate-CoA ligase GDP/ADP-forming subunit alpha)", "reagent": 2, "total luciferase, z-score": -0.773, "total luciferase, % of control": 66.5, "activity call": "inactive"}
{"target": "SUCLG1 (succinate-CoA ligase GDP/ADP-forming subunit alpha)", "reagent": 3, "total luciferase, z-score": -0.422, "total luciferase, % of control": 73.5, "activity call": "inactive"}
{"target": "SHROOM3 (shroom family member 3)", "reagent": 1, "total luciferase, z-score": -1.42, "total luciferase, % of control": 53.7, "activity call": "inactive"}
{"target": "SHROOM3 (shroom family member 3)", "reagent": 2, "total luciferase, z-score": -0.308, "total luciferase, % of control": 75.8, "activity call": "inactive"}
{"target": "SHROOM3 (shroom family member 3)", "reagent": 3, "total luciferase, z-score": -0.52, "total luciferase, % of control": 71.6, "activity call": "inactive"}
{"target": "SSR4P1 (signal sequence receptor subunit 4 pseudogene 1)", "reagent": 1, "total luciferase, z-score": 1.49, "total luciferase, % of control": 111, "activity call": "inactive"}
{"target": "SSR4P1 (signal sequence receptor subunit 4 pseudogene 1)", "reagent": 2, "total luciferase, z-score": 0.572, "total luciferase, % of control": 93.3, "activity call": "inactive"}
{"target": "SSR4P1 (signal sequence receptor subunit 4 pseudogene 1)", "reagent": 3, "total luciferase, z-score": 1.32, "total luciferase, % of control": 108, "activity call": "inactive"}
{"target": "SSR4P1 (signal sequence receptor subunit 4 pseudogene 1)", "reagent": 4, "total luciferase, z-score": -1.21, "total luciferase, % of control": 57.7, "activity call": "inactive"}
{"target": "SSR4P1 (signal sequence receptor subunit 4 pseudogene 1)", "reagent": 5, "total luciferase, z-score": -0.86, "total luciferase, % of control": 64.8, "activity call": "inactive"}
{"target": "SSR4P1 (signal sequence receptor subunit 4 pseudogene 1)", "reagent": 6, "total luciferase, z-score": -0.453, "total luciferase, % of control": 72.9, "activity call": "inactive"}
{"target": "PPM1G (protein phosphatase, Mg2+/Mn2+ dependent 1G)", "reagent": 1, "total luciferase, z-score": -0.0498, "total luciferase, % of control": 80.9, "activity call": "inactive"}
{"target": "PPM1G (protein phosphatase, Mg2+/Mn2+ dependent 1G)", "reagent": 2, "total luciferase, z-score": -0.498, "total luciferase, % of control": 72, "activity call": "inactive"}
{"target": "PPM1G (protein phosphatase, Mg2+/Mn2+ dependent 1G)", "reagent": 3, "total luciferase, z-score": 0.893, "total luciferase, % of control": 99.6, "activity call": "inactive"}
{"target": "TGM6 (transglutaminase 6)", "reagent": 1, "total luciferase, z-score": -0.493, "total luciferase, % of control": 72.1, "activity call": "inactive"}
{"target": "TGM6 (transglutaminase 6)", "reagent": 2, "total luciferase, z-score": 0.193, "total luciferase, % of control": 85.7, "activity call": "inactive"}
{"target": "TGM6 (transglutaminase 6)", "reagent": 3, "total luciferase, z-score": -1.47, "total luciferase, % of control": 52.6, "activity call": "inactive"}
{"target": "TRIM65 (tripartite motif containing 65)", "reagent": 1, "total luciferase, z-score": -0.349, "total luciferase, % of control": 75, "activity call": "inactive"}
{"target": "TRIM65 (tripartite motif containing 65)", "reagent": 2, "total luciferase, z-score": -0.852, "total luciferase, % of control": 64.9, "activity call": "inactive"}
{"target": "TRIM65 (tripartite motif containing 65)", "reagent": 3, "total luciferase, z-score": -0.469, "total luciferase, % of control": 72.6, "activity call": "inactive"}
{"target": "MED19 (mediator complex subunit 19)", "reagent": 1, "total luciferase, z-score": 0.925, "total luciferase, % of control": 100, "activity call": "inactive"}
{"target": "MED19 (mediator complex subunit 19)", "reagent": 2, "total luciferase, z-score": -1.95, "total luciferase, % of control": 43.1, "activity call": "inactive"}
{"target": "MED19 (mediator complex subunit 19)", "reagent": 3, "total luciferase, z-score": -0.121, "total luciferase, % of control": 79.5, "activity call": "inactive"}
